Source: patent US20240082212A1, “USE OF MDMA FOR TREATMENT OF STRESS-RELATED DISORDERS” (priority 2022, published 2024)
Some of these results come from one statement about several compounds together. For part of these data: At least one structure is not confirmed: it was looked up by name or label, or the drawing left a doubt.

Protein sequences, listed by entry. Tags and fused reporters are not part of them. Residues count along the entry.
UniProt P30926, 22-498: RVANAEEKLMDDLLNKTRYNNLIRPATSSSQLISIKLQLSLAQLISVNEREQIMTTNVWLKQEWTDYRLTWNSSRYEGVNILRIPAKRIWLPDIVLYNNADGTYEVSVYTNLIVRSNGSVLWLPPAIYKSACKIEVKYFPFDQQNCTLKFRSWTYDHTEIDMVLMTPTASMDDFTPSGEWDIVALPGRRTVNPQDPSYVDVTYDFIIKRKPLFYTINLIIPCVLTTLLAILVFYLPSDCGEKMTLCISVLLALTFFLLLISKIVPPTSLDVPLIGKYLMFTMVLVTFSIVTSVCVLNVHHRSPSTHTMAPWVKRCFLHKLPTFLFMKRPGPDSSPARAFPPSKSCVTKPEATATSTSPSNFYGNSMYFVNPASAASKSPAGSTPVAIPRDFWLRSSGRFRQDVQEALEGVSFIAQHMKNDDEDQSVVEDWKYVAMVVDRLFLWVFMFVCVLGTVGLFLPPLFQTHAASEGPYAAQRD
UniProt P32297, 32-505: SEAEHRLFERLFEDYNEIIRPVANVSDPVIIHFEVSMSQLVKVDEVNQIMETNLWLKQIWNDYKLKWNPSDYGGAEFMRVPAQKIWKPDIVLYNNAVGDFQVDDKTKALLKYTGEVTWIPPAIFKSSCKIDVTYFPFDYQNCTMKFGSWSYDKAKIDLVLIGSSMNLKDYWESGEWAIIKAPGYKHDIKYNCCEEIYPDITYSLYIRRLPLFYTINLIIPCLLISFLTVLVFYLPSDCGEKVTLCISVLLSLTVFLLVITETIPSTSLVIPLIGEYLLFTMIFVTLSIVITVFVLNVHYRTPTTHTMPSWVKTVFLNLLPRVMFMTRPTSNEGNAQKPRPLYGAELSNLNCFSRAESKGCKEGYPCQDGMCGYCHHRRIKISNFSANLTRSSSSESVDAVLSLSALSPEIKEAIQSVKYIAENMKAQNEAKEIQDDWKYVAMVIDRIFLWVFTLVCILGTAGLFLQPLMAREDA

Columns and labels:
CD (Sprague Dawley) rats = experiment: Rat telemetry: heart rate, blood pressure, body temperature, activity after cumulative SC dosing; assay type: in vivo; details: for period of significantly increased diastolic blood pressure compared to R-MDMA (10 mg/kg/day): racemic MDMA 20 mg/kg/day, S-MDMA 10 mg/kg/day, approximate
Description: Methods. A total of 42 adult male CD® (Sprague Dawley) rats (Charles River Laboratories) were surgically implanted with DSI radiotelemetry devices by personnel at Charles River Laboratories Raleigh, NC, per their test site SOPs. Telemetry devices supported continuous recording of temperature, activity, blood pressure and heart rate. Telemeterized rats were shipped to the Charles River Laboratories testing facility (Mattawan, MI) and acclimated to the environment for at least 1 week prior to experimentation. Animals were pair-housed in solid bottom cages with nonaromatic bedding. On the dosing day, animals were singly housed and then returned to the paired cohort following the dosing/telemetry recording phase. Diet (Lab Diet® Certified Rodent Diet #5CR4) and tap water via an automatic water system were available ad libitum, except during designated procedures. Temperature and humidity were maintained according to the Testing Facility SOP. Animals were randomized into treatment groups using a standard, by weight, measured value randomization procedure. Body weight was determined for each rat prior to dosing.
As illustrated in the Table, a total of 36 rats were included in the study. The vehicle and 2 test article doses were administered in a volume of 1 mL/kg to each of 3 groups of n=12 telemeterized rats via subcutaneous injection four times on a given day, followed by neurobehavioral evaluations. This series was repeated 3 times on study. Each group received all 3 dose levels of the applicable test or control article in ascending order with a 1-week washout between dose levels.
Mortality/cage side clinical observations were conducted for all study animals at least twice daily beginning upon receipt through termination, except on days of receipt and termination where frequency was at least once daily. Detailed clinical observations were conducted for all study animals prior to each of the four cumulative doses in a series. Individual body weights were conducted for all study animals at transfer, prior to randomization, on the day of dosing on each of the 3 cycles of dosing. The body weights recorded at transfer and prior to randomization are not reported but are maintained in the study file. Veterinary care was available throughout the course of the study, and animals were examined by the veterinary staff as needed based on clinical signs or other changes. […]
All time-series data comparisons conducted via statistical analysis are relative to the control treatment and are based on the LSMean values. Additionally, the change values used for the statistical analysis were calculated using a baseline of the 2 hours of pre-dose data, prior to the first compound injection of the series. The raw change values were analyzed.

[1] = target: Nicotinic acetylcholine α3β4 (Homo sapiens, UniProt P30926+P32297); experiment: Eurofins Panlabs radioligand binding panel, nicotinic acetylcholine α3β4; details: concentrations ranging from 0.3 nM to 10 μM
[2] = maximum change, R-MDMA and racemic MDMA 10, 20 mg/kg/day, S-MDMA 5, 10 mg/kg/day, 4 hourly SC injections

CNC(C)Cc1ccc2c(c1)OCO2 (single isomer, unassigned) [R-MDMA, R(−)-3,4-methylenedioxymethamphetamine]
blood pressure increase [mean arterial pressure] (CD (Sprague Dawley) rats; [2]): up to +28% | inhibition of radioligand binding [1]: < 50%

CNC(C)Cc1ccc2c(c1)OCO2 (racemic) [Racemic MDMA, 3,4-methylenedioxymethamphetamine]
period of significantly increased diastolic blood pressure compared to R-MDMA (10 mg/kg/day) (CD (Sprague Dawley) rats): 1-3 hours post initiation of dosing

CNC(C)Cc1ccc2c(c1)OCO2 (single isomer, unassigned) [S-MDMA, S(+)-MDMA]
heart rate increase (CD (Sprague Dawley) rats; [2]): up to +28% | period of significantly increased diastolic blood pressure compared to R-MDMA (10 mg/kg/day) (CD (Sprague Dawley) rats): 1-3 hours post initiation of dosing | inhibition of radioligand binding [1]: < 50%
